Measurements reported in PubChem BioAssay AID1259331 (Drosophila RNAi Screening Center, 2017).

Test: 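Fly transmembrane-protein genes that affect zinc toxicity in cultured cells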 (primary screen)
System: Drosophila S2R+ cells
Reagent: long dsRNA against Drosophila genes
Timing: 5 days (4 days knock-down, then 1 day zinc)
Conditions: zinc chloride at 15 mM final level for 1 day
Read-out: 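Luminescent ATP assay standing in for viability; Z score is the mean over three replicate plates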
Reading the numbers: mean Z score: higher = more ATP than other wells, better survival under zinc; ATP luminescence: higher = more ATP, more viable cells
Rule for the call: 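Hit when the absolute Z score is greater than 1.5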
Calls: active = hit, ATP up or down; inactive = not a hit
This is one part, drawn at random, of about 3,100 reagents tested. 126 of them (4.1%) were called active. 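Calls are per reagent; zinc was so toxic that few knock-downs lowered ATP further, so most hits raise ATP.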 The raw values are shown without normalisation. Names joined by + are all predicted targets of the reagent. The record does not give: the amount of reagent.

Vha16-2 (GeneID 39282) [DRSC10873] showed mean Z score -0.293; ATP luminescence, replicate 1 = 71453; ATP luminescence, replicate 2 = 54356; inactive.
Depletion of Vha16-2 (GeneID 39282) [DRSC25504] came out at: mean Z score -0.153; ATP luminescence, replicate 1 = 53961; ATP luminescence, replicate 2 = 53430; inactive.
With knock-down of CG8785 (GeneID 36391) [DRSC07266] the results were mean Z score -0.261; ATP luminescence, replicate 1 = 26805; ATP luminescence, replicate 2 = 31296; inactive.
Against Alg7 (GeneID 34711) [DRSC02833] the deposit lists mean Z score 0.0249; ATP luminescence, replicate 1 = 54716; ATP luminescence, replicate 2 = 58542; inactive.
Alg7 (GeneID 34711) [DRSC02834] showed mean Z score 0.986; ATP luminescence, replicate 1 = 65039; ATP luminescence, replicate 2 = 48234; inactive.
With knock-down of CG9444 (GeneID 41175) [DRSC16493], the screen gave mean Z score 0.0293; ATP luminescence, replicate 1 = 39422; ATP luminescence, replicate 2 = 56379; inactive.
Against l(1)1Bb + ebo [DRSC28174] the deposit lists mean Z score -0.241; ATP luminescence, replicate 1 = 57802; ATP luminescence, replicate 2 = 52058; inactive.
l(1)1Bb + ebo [DRSC39798] showed mean Z score -0.232; ATP luminescence, replicate 1 = 51081; ATP luminescence, replicate 2 = 54939; inactive.
With knock-down of Loxl2 (GeneID 37485) [DRSC04469] the results were mean Z score -0.28; ATP luminescence, replicate 1 = 28108; ATP luminescence, replicate 2 = 29153; inactive.
With knock-down of Nup44A (GeneID 35762) [DRSC07248], the record shows mean Z score -0.41; ATP luminescence, replicate 1 = 29067; ATP luminescence, replicate 2 = 30130; inactive.
Silencing of Nup44A (GeneID 35762) [DRSC28141] gave: mean Z score 0.149; ATP luminescence, replicate 1 = 67446; ATP luminescence, replicate 2 = 60701; inactive.
CarT (GeneID 35334) [DRSC03196] gave mean Z score -0.212; ATP luminescence, replicate 1 = 54091; ATP luminescence, replicate 2 = 52298; inactive.
Depletion of CarT (GeneID 35334) [DRSC27070] resulted in: mean Z score -0.209; ATP luminescence, replicate 1 = 44805; ATP luminescence, replicate 2 = 64816; inactive.
Silencing of Eglp4 (GeneID 37739) [DRSC04438] gave: mean Z score 1.15; ATP luminescence, replicate 1 = 64833; ATP luminescence, replicate 2 = 49280; inactive.
After knock-down of Eglp4 (GeneID 37739) [DRSC25991], the screen gave mean Z score -0.108; ATP luminescence, replicate 1 = 51955; ATP luminescence, replicate 2 = 58073; inactive.
After knock-down of SLC5A11 (GeneID 34117) [DRSC03088] the results were mean Z score -0.176; ATP luminescence, replicate 1 = 52064; ATP luminescence, replicate 2 = 55505; inactive.
Against SLC5A11 (GeneID 34117) [DRSC39771], the values are mean Z score -0.0981; ATP luminescence, replicate 1 = 52861; ATP luminescence, replicate 2 = 56932; inactive.

Limited to “ATP luminescence, replicate 1”, for 2 of the entries above:
Loxl2 (GeneID 37485) [DRSC04469]: 28108
Nup44A (GeneID 35762) [DRSC07248]: 29067
